One assay deals with P. falciparum D10. In words: In vitro antiplasmodial activity, P. falciparum D10 (CQ-S clone). In kind it is cell-based. The following applies: Plasmodium falciparum. As for the experimental part:
(§1) Some of the synthesized compounds were tested in vitro against two different strains of P. falciparum, namely 3D7, NF54 and D10 (CQ-S strain) and K1 and W2 (CQ-R strain).

The next assay deals with P. falciparum K1. In words: microbe, parasite or virus in culture. In kind it is cell-based. As to conditions: Plasmodium falciparum; P. falciparum K1, CQ-R clone. The method, then:
as §1

Another assay deals with P. falciparum W2. In words: microbe, parasite or virus in culture. It counts as cell-based. The following applies: Plasmodium falciparum; P. falciparum W2, CQ-R clone. The method, then: as §1
The test system of assay [1] is Candida krusei ATCC ® 6258. Nature of the assay: Antifungal susceptibility (CLSI broth dilution), Candida krusei. In kind it is cell-based. The following applies: CLSI protocol, quality control strain. The source says: (1) National Committee for Clinical Laboratory Standards. (2002). Reference method for broth dilution antifungal susceptibility testing of yeasts—Second Edition: Approved Standard, M27-A2. NCCLS, Wayne, Pa.; and
(2) National Committee for Clinical Laboratory Standards. Reference method for broth dilution antifungal susceptibility testing of filamentous fungi: Approved Standard, M38-A. 2002; NCCLS, Wayne, Pa.

For assay [2], the system named is β-hematin formation (hemin). Nature of the assay: BHIA (β-hematin inhibitory activity) assay. It counts as biochemical. As to conditions: hemin in dimethyl sulfoxide-acetate buffer at pH 5.0, 37° C., 18 h.

Consider 1 compound from US20100093726A1 (Giuseppe CAMPIANI, priority 2007, published 2010).

The structures appear in SMILES notation.

With `Clc1ccccc1C(c1ccccc1)(c1ccccc1)n1ccnc1` [CLT, clotrimazole, reference compound], the IC50 (as a rule, the midpoint of a concentration-inhibition curve) was 550 nM in the assay with P. falciparum D10, 250 nM in the assay with P. falciparum K1 and 490 nM in the assay on P. falciparum W2. Moreover, in assay [1], the “antifungal susceptibility value (MIC), Candida krusei ATCC 6258” value is 2. The “β-hematin inhibitory activity IC50” value in assay [2] was 2.50 Molar equivalents of compound relative to hemin.
